Library screen at single concentrations

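Phenotypic screen: M. tuberculosis growth, glucose 7H9 medium, 3 days; the read-out is not stated. Compounds at 500 µM. Higher reads as more growth inhibition (inferred: compounds with an IC50 in retests scored well above the rest). Of about 18,000 compounds tested this way, about 1,400 (7.9%) reached 50% or more in at least one test.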

Each number is a percent effect as filed.
The controls that fix the scale are not given in the record; negative values are as filed.
This is an unselected part of the compounds tested.

COCC1CCCN(CC(=O)NCC(F)(F)F)C1 (stereo not given) read -0.1843%.
O=C(NCCNCc1ccccc1)c1ccco1 read 2.669%.
NCc1coc(-c2cccs2)n1 read 80.76%.
Cc1cccc(N2CCCC(CN3CCOCC3)C2)n1 (stereo not given) read -12.27%.
CNC(=O)N1CCCCCC1c1ccncc1 (stereo not given) read -2.118%.
CCN(CC)S(=O)(=O)c1csc(C(=O)N(C)C)c1 read 25.36%.
NC(=O)C1CCCCN1CC(=O)NC1CCCCC1 (stereo not given) read -6.234%.
O[C@H]1C[C@H](N2CCOCC2)C1 read 7.172%.
Cc1cc(C)nc(NC(=O)NCC(=O)N(C)C)c1 read -10.16%.
c1ncn(CCN2CCNCC2)n1 read -1.149%.
CSc1cccc(C#N)n1 read 8.963%.
CCn1cc(CN)cn1 read 1.167%.
CC(C)(C)OC(=O)NCC(C)(O)c1ccco1 (stereo not given) read 24.42%.
O[C@@H](Cc1ccccn1)c1ccccc1 read 25.49%.
N#Cc1cccnc1N[C@@H]1CCOC[C@H]1OCC1CC1 read 17.5%.
CC(CCn1cccn1)NC(=O)Cc1ccsc1 (stereo not given) read 6.554%.
Cc1noc(C)c1CN(C)CC(=O)NCc1ccco1 read 23.57%.
CCC[C@H]1CN(C(=O)Cc2cccc(OC)c2)C[C@@H]1N read 37.4%.
Cc1noc(C)c1CN(C)C(=O)NCC(C)N(C)C (stereo not given) read -10.67%.
CC1(C)CN(c2ncccc2C#N)CCO1 read 8.731%.
c1ccc(CN2CCCCC2CN2CCOCC2)nc1 (stereo not given) read 0.5323%.
CN1C(=O)[C@H]2CN(Cc3ccc(Cl)cc3F)C[C@H]2C1=O read 3.311%.
CCN(CCC#N)C(=O)CSc1ccoc1C read 13.16%.
CC(O)C(=O)Nc1ccc(Cl)c(OC(F)F)c1 (stereo not given) read 22.48%.
CC(C)(C)CC(=O)NCCNC(=O)c1ccco1 read 19.81%.
COc1ccc2cc(CN)ccc2c1 read 29.56%.
NCC1(N2CCN(c3ccccc3)CC2)CCOCC1 read 28.72%.
CNC(=O)C1CCCN1Cc1ccccc1N(C)C (stereo not given) read 25.71%.
CCCC(C)NC(=O)NCc1ccn(C)c1 (stereo not given) read 19.23%.
N#CCSCC(=O)NCc1ccccc1F read 9.677%.
CCc1nnc(CN)s1 read 16.61%.
COc1ccc(C(NCCO)C2CCOCC2)cc1 (stereo not given) read 10.13%.
Cn1cc(C(N)CO)cn1 (stereo not given) read 8.423%.
Cc1ccc(-n2cc(N)nn2)cc1 read 37.39%.
CN1C(=O)Cc2cc(S(=O)(=O)N3CCCCC3)ccc21 read 0.5302%.
CC(C)(C)[C@H](N)CO read 1.867%.
CC1CCS(=O)(=O)CCN1CC(=O)NCC1CCC1 (stereo not given) read 14.82%.
CCCc1nnc(N2CCC3(CC2)OCC(C)O3)s1 (stereo not given) read 90.75%.
CN(C(=O)C1CCOC1)c1ncc(Cl)cc1Cl (stereo not given) read 2.315%.
CC(=O)NCC(c1ccsc1)N(C)C (stereo not given) read 6.387%.
c1c[nH]c(CN2CCN(C3CCOCC3)CC2)n1 read 1.633%.
NC1CCN(Cc2ccc(F)c(F)c2)CC1 read -4.06%.
CNC(=O)C1(c2ccccc2)CCN(C(C)=O)CC1 read 9.707%.
O=C(CCn1cccc1)NCc1ccco1 read 56.11%.
CCN1CCC(c2nc(C3CCOC3)no2)CC1 (stereo not given) read 1%.
COc1ccc(C(O)C2CCNCC2)cc1 (stereo not given) read 13.13%.
CN(C)c1nsc(N2CC[C@@]3(O)CCNC[C@H]3C2)n1 read 10.35%.
CC(O)CN1CCN(C(=O)c2cc(Br)c[nH]2)CC1 (stereo not given) read 23.62%.
CN(C)CCSCc1noc(C2CCOCC2)n1 read 4.133%.
CCN(CC)CCOc1ccccc1CN read -10.28%.
CCC(CNC(=O)c1ccco1)N1CCCC1 (stereo not given) read 14.8%.
C=C(C(=O)OC)C(O)c1ccc(F)c(F)c1 (stereo not given) read 48.9%.
OC[C@@H]1COCCN1 read 7.39%.
O=C(NCC1CCOC1)c1cc2c([nH]c1=O)CCC2 (stereo not given) read -11.88%.
CN(C(=O)c1cccnc1)C1CCc2ccccc21 (stereo not given) read 41.45%.
O=C(Nc1ncccc1O)c1sccc1OC(F)F read -1.475%.
CCCC(=O)N(C)Cc1cc2ccccc2nc1O read 8.119%.
CCCC(N)C(=O)N(C)Cc1cccc(N(C)C)c1 (stereo not given) read 24.87%.

3 of the entries, repeated:

| structure | Percent Effect |
|---|---|
| `CN(C)CCSCc1noc(C2CCOCC2)n1` | 4.133% |
| `CC(=O)NCC(c1ccsc1)N(C)C` (stereo not given) | 6.387% |
| `Cn1cc(C(N)CO)cn1` (stereo not given) | 8.423% |

Measurements from “University of Dundee, Small-Polar-MMV Screening Library” (2021), ChEMBL document CHEMBL3988442.